The text below walks through data of article PMC11579460.

Chains of the proteins cited; added tags and fusions are not shown.
UniProt Q96LD4: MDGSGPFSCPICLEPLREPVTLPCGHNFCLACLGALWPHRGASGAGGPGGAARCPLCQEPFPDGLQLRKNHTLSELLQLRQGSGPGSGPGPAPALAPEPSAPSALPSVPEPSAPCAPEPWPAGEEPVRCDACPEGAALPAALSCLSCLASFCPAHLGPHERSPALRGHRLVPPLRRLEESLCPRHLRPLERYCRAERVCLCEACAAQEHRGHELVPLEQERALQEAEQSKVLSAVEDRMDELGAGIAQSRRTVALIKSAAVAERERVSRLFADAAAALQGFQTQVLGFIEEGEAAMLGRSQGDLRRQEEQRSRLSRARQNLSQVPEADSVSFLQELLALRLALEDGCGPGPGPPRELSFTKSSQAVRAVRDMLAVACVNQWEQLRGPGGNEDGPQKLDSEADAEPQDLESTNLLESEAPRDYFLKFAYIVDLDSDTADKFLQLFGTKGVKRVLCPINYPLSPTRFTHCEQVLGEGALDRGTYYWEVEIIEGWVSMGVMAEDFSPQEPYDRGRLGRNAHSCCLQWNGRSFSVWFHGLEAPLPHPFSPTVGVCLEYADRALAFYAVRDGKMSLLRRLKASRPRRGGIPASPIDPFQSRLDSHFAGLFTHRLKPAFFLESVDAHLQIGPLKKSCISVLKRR
UniProt Q96SW2: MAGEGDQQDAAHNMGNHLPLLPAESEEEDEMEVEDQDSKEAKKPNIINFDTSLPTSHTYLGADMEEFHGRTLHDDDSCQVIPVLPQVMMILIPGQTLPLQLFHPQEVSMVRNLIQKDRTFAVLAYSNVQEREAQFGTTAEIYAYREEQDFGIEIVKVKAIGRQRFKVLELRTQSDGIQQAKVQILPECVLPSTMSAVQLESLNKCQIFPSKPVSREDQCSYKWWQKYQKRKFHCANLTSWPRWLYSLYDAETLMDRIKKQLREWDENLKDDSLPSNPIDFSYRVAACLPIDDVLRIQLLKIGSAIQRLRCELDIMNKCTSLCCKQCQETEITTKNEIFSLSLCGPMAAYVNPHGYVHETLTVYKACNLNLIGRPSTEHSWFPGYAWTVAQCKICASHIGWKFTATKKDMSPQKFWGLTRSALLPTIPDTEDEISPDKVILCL

Results are given in words; binding and its absence hold for the method and conditions named. Binding seen in cells or lysates may run through a third protein. Here binding means that the protein was enriched with, or labelled near, the bait; the list need not be complete.

The target in the assay is FLAG-TRIM47 (human) (UniProt Q96LD4). The assay can be described thus: affinity purification with mass spectrometry; HEK293T transfected with FLAG-TRIM47 for 48 h; cell extracts immunoprecipitated with anti-FLAG antibody or control IgG; eluted proteins analysed by LC-MS.

Consider “CRBN (endogenous, HEK293T) (from UniProt Q96SW2 1-442)”, for which the binding result is on record as “binds”. On to “TP53 (endogenous, HEK293T) (from UniProt P04637 1-393)”, for which the binding result is given as “binds”.
